This passage reports binding results from paper PMC9239253.

By UniProt entry, the sequences of proteins in these tests, tags left out.
UniProt Q9Y572: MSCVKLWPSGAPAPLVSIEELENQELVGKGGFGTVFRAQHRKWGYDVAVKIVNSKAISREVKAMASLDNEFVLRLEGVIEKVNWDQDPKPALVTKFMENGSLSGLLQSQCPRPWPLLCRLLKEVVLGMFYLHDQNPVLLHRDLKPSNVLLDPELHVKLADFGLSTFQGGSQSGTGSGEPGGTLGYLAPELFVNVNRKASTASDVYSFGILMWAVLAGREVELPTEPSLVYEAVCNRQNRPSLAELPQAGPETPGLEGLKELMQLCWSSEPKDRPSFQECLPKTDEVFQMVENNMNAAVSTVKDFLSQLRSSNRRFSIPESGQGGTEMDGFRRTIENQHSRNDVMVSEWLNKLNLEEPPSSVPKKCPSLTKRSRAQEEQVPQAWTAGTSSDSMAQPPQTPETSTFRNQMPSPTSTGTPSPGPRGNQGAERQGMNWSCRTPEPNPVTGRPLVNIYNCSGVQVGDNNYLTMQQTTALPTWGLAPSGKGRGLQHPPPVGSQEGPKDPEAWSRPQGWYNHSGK
UniProt Q13546: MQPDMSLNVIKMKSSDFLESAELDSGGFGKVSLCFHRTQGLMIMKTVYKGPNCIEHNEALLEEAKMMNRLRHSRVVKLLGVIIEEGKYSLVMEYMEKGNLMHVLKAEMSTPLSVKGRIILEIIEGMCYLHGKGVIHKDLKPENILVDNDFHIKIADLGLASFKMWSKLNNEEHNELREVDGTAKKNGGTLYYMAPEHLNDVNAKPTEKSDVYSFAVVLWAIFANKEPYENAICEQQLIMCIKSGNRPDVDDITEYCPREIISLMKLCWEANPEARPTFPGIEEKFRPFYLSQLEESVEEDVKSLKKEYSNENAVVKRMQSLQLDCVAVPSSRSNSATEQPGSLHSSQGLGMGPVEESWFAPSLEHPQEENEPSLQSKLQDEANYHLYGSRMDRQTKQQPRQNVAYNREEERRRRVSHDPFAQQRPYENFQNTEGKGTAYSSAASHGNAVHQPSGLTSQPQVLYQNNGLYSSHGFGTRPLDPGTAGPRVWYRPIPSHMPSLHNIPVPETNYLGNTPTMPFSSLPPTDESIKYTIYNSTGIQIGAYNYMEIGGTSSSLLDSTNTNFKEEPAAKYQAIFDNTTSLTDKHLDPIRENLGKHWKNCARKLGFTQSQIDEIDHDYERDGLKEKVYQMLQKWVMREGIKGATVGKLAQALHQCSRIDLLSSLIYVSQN

Results are given in words; binding and its absence hold for the method and conditions named. Binding seen in cells or lysates may run through a third protein. Some entries that bind do so weakly or less than the wild type.

This experiment deals with RIPK3 (UniProt Q9Y572). Put plainly: co-IP.

As to HA-RIPK1 (from UniProt Q13546 1-671), the binding result is listed as “binds”.
